# Hit rate of the full screen: of about 140,000 compounds, about 4,300 (3.1%) were called active. The shares of active, inactive and inconclusive entries below differ from those in the screen.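 The calls were made as follows: active = readout at or below -70, meaning at least 70% loss of cells showing the perinucleolar compartment, a nuclear body marking cancer cells; inconclusive = readout between -30 and a set limit; inactive = the rest.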
# Assay: High Content Assay for Compounds that inhibit the Assembly of the Perinucleolar Compartment;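 also: plate controls were DMSO wells for no effect and camptothecin positive control wells for full effect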
# Conditions: PC3M PTB-GFP, PNC prevalence imaging, 16 h; at 10 µM; hits give low values
# How it was run: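 Read-out is percentage of cells bearing a perinucleolar compartment, from automated 20x imaging of fixed, Hoechst-stained PC3M PTB-GFP cells. Cells were seeded 4 h, then exposed 16 h to compound (23 nl of library stock) in duplicate plates.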
row,SMILES,"activity change (PNC), negative = inhibition"
1,COCCCn1c(SCC(=O)N(C)C)nnc1-c1ccccc1,inconclusive: -30.1%
2,Cc1ccc2nsnc2c1NC(=O)c1ccc(-c2cc(Cl)ccc2Cl)o1,inconclusive: -36.9%
3,N#CC12CCCCC1CC1CCCCC1(C#N)N2Cc1cccnc1 (stereo not given),active: -86.6%
4,Cn1nnnc1SCC(=O)Nc1ccccc1Cc1ccccc1,inactive: 8.86%
5,Cc1c(NS(=O)(=O)c2cccc(C(=O)NCc3ccc(Cl)cc3)c2)c(=O)n(-c2ccccc2)n1C,inconclusive: -43.7%
6,CCS(=O)(=O)N1CCC(NC(=O)C2CCCCC2)CC1,inactive: -1.54%
7,Cn1c(=O)cc(SCC(=O)NCCC2=CCCCC2)c2ccc(Cl)cc21,inconclusive: -48.4%
8,CCOC(=O)CSC1=NC(=O)CS1,inconclusive: -44.7%
9,c1ccc(CCNc2ncnc3scc(C4COc5ccccc5O4)c23)cc1 (stereo not given),inconclusive: -54.4%
10,COC(=O)C1CCN(C(=O)COC(=O)CCc2nc3ccccc3c(=O)[nH]2)CC1,inconclusive: -43.8%
11,CCOc1ccc(NC(=O)CSc2nnc(C34CC5CC(CC(C5)C3)C4)n2C)cc1,inconclusive: -37.7%
12,Cc1ccnc(NS(=O)(=O)c2ccc(NC(=O)C3CCCCC3)cc2)n1,inconclusive: -40.6%
13,Cc1ccc(C(=O)N/N=C\c2cc3c(cc2Br)OCO3)s1,inactive: -28.4%
14,C(=N\N(c1ccccc1)c1ccccc1)/c1ccc(N2CCOCC2)s1,inactive: -22.1%
15,COc1ccc(CCN=CC2=C(O)CCCC2=O)cc1OC,inconclusive: -35.1%
16,COC(=O)c1cccc(NC(=O)CCNC(=O)c2ccc([N+](=O)[O-])cc2)c1,inconclusive: -45.4%
17,Cc1nc2c(-c3ccc(F)cc3)c(C)nn2c(C)c1CCC(=O)NC(C)CCc1ccco1 (stereo not given),inconclusive: -64.1%
18,O=C(Nc1ccc2nc(-c3ccco3)[nH]c2c1)c1ccco1,inactive: 28.3%
19,Cc1cc(C(=O)N2CCN(C/C=C/c3ccccc3)CC2)no1,inconclusive: -59.9%
20,COc1ccc(Cc2c(Cl)ncnc2Cl)cc1,inconclusive: -31.5%
21,O=C(NCCc1c[nH]c2ccccc12)c1cnc2n(c1=O)CCS2,inconclusive: -72.7%
22,CSc1cccc(NC(=O)CN(Cc2ccc(Cl)cc2)S(C)(=O)=O)c1,inconclusive: -38.7%
23,CC/C(Cc1ccccc1)=N/NC(=O)c1cccc(Br)c1,inactive: -9.89%

row,SMILES,"activity change (PNC), negative = inhibition"
1,COc1cc(/C=N/NC(=O)CN2CCOCC2)ccc1OCc1ccccc1,inconclusive: -30.3%
2,COc1ccc(OC)c(N=CC2=C(O)CC(C)(C)CC2=O)c1,inactive: -29.2%
3,N#Cc1cccnc1Nc1cccc(Cl)c1,inconclusive: -33.9%
4,CC1=NN(c2ccccc2)C(=O)/C1=C/c1c(O)n(-c2ccc(F)c(Cl)c2)[nH]c1=O,active: -116%
5,CCCCc1nc(SCC(=O)Nc2ccc(S(N)(=O)=O)cc2)n[nH]1,inactive: 10.4%
6,Cc1[nH]nc(N=CC2=C(O)CC(C)(C)CC2=O)c1-c1ccccc1,inconclusive: -34.4%
7,COc1ccc(C2Nc3ccc4ccccc4c3-c3c2c(=O)oc2ccccc32)cc1 (stereo not given),inconclusive: -30.4%
8,Cn1c(=O)c2c(nc(CN3CCN(C(=O)c4ccco4)CC3)n2Cc2ccc(Cl)cc2)n(C)c1=O,inconclusive: -47.7%
9,CN(C)S(=O)(=O)c1ccc(NC(=O)N2CCN(c3cccc(C(F)(F)F)c3)CC2)cc1,inconclusive: -37.8%
10,CCOC(=O)c1c(C)c(C(=O)NCc2ccccc2OC)c(C)n1C,inactive: 28%
11,Cc1ccc(S(=O)(=O)N2CCN(S(=O)(=O)N3CCOCC3)CC2)c(C)c1,inactive: -13.9%
12,Cc1cc(C)cc(NC(=O)C2CCCN(c3nc(C)cc(C)n3)C2)c1 (stereo not given),inactive: -1.71%
13,Cc1ccc(NC(=O)c2ccn(C)n2)c(Br)c1,inconclusive: -64.8%
14,Cc1ccc2nc(N3CCN(C=O)CC3)nc(-c3ccccc3)c2c1,active: -100%
15,COc1ccc(-c2nc3ccccc3c(=O)n2CCCN2CCOCC2)cc1,inconclusive: -46.5%
16,Cc1ccc2c(c1)C(c1ccc([N+](=O)[O-])cc1)=NNC(c1ccc(Br)cc1)=N2,inconclusive: -31.4%
17,O=C(NC(=S)Nc1ccccn1)c1cc(-c2ccccc2)nc2ccccc12,inactive: -3.12%
18,O=C(NCC1CCCO1)C(c1cccs1)N(C(=O)Cn1nnc(-c2cccs2)n1)C1CCCC1 (stereo not given),inconclusive: -41.8%
19,Cc1ccc(NC(=S)NCC2CCCO2)c(OC(F)F)c1 (stereo not given),inconclusive: -47.3%
20,N#Cc1c(-c2ccccc2)c(C#N)c2nc3ccccc3n2c1N,inconclusive: -68.4%
21,C/C(=N\NC(=O)c1ccccc1)c1cc2cc([N+](=O)[O-])ccc2oc1=O,inconclusive: -57.3%
22,CC(=O)N(CN1C(=O)c2ccc([N+](=O)[O-])cc2C1=O)c1ccc(F)cc1,inconclusive: -30.2%

# Reprinted at random: 4 entries already listed.
row,SMILES,"activity change (PNC), negative = inhibition"
1,COc1cc(/C=N/NC(=O)CN2CCOCC2)ccc1OCc1ccccc1,inconclusive: -30.3%
12,Cc1cc(C)cc(NC(=O)C2CCCN(c3nc(C)cc(C)n3)C2)c1 (stereo not given),inactive: -1.71%
11,Cc1ccc(S(=O)(=O)N2CCN(S(=O)(=O)N3CCOCC3)CC2)c(C)c1,inactive: -13.9%
2,COc1ccc(OC)c(N=CC2=C(O)CC(C)(C)CC2=O)c1,inactive: -29.2%
